Test results: PubChem BioAssay AID1508600 (Functional Genomics Laboratory (NCATS/FGL), 2020)
The whole screen tested about 53,000 sequences, of which about 3,700 (7%) were called active.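 How the source made its calls: active means gene knockdowns whose robust z-score for IL-1 alpha signal is at least 2 or at most -2, so actives lie on both sides; inactive means the rest.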 The list shows a part of the results.

Assay: Components of the Cytosolic LPS Sensing Pathway: Gene Identification via Genome-wide siRNA Screen;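 further: robust z of the log signal after scaling to non-targeting control siRNA wells of the plate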
Settings: RAW264.7 macrophages, IL-1a HTRF, actives lie on both sides, screened at 100 nM (by protocol), cells primed 5 h with Pam3CSK4 first
How it was run: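 RAW264.7 mouse macrophages reverse-transfected with single siRNAs (100 nM final) for 48h, primed with Pam3CSK4 for 5 hours, then transfected with LipidA for 24 hour. Supernatant IL-1a read by HTRF; values normalized to negative-control median, log-transformed robust z-scores.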

Q: For GUUACAGCUGCCUUUGUUUTT against Olfr893, which z-score is on record?
A: active: -2.49

Q: With GGCCUGGAGGACUUUAUAATT against Cyp2a4 as the sequence, how does the z-score read?
A: inactive: -1.13

Q: With GGAAAAGUGACGGUAUCUATT against Rpsa as the sequence, how does the z-score read?
A: active: -2.04

Q: With GCAAAUUAUUGGAUGAUGCTT against Glod4 as the sequence, how does the z-score read?
A: inactive: 0.388

Q: For GGGUCAAUUGCCAAAACUCTT against Arhgdia, which z-score is on record?
A: inactive: 0.171

Q: With GUACUCUUUUUCAUCUUCCTT against Olfr1010 as the sequence, how does the z-score read?
A: inactive: -1.5

Q: For CGAGAAAUUGUAGAAGUAATT against Med30, which z-score is on record?
A: inactive: -0.214

Q: With GGCAAUCCAGACGAUAUCUTT against Abca1 as the sequence, how does the z-score read?
A: inactive: -0.735

Q: Which z-score does the source give for GGCAGAACACCUUCUUAGUTT against Dars2 here?
A: inactive: -0.425

Q: With CCUAUUUGUAGGUGAUGUUTT against B3gnt7 as the sequence, how does the z-score read?
A: inactive: -0.445

Q: With GGGUUAUGGACACUACCCATT against Tnk1 as the sequence, how does the z-score read?
A: inactive: -1.84

Q: With GCUAUCAAAGCUAAUACAUTT against Mrps9 as the sequence, how does the z-score read?
A: active: 3.41

Q: Which z-score does the source give for GGAAAGACAGGUAAACUCATT against Slc6a17 here?
A: inactive: 0.31

Q: With CCAUCUAUGAUCCCAGAGCTT against Fbxw9 as the sequence, how does the z-score read?
A: inactive: -1.91

Q: With GGCUCCAACAUAGAAAUGATT against Tpbpa as the sequence, how does the z-score read?
A: inactive: 0.38

Q: Which z-score does the source give for GGAAGAUGGAGAUCAGACGTT against Foxd4 here?
A: inactive: -0.498

Q: With GGGAAACAUCCUCAGGGAUTT against Dcaf8 as the sequence, how does the z-score read?
A: inactive: 0.374

Q: Which z-score does the source give for GGAACGAGACUCAUCUUCUTT against Cic here?
A: inactive: 0.786

Q: With CGGAUCCUACGGAAUUACGTT against Fpgs as the sequence, how does the z-score read?
A: inactive: 0.99

Q: With CCUUUUGUUUUACCUACUCTT against Tbx22 as the sequence, how does the z-score read?
A: active: 2.32

Q: For GGAGAUUAAGAUUCAGCAGTT against Nmt2, which z-score is on record?
A: inactive: -1.69

Q: Which z-score does the source give for GGGUCGAUCAUUGUGGUCATT against Olfr508 here?
A: inactive: -0.826

Q: With GCAUUGACAAUACGACCAGTT against Sgo1 as the sequence, how does the z-score read?
A: inactive: -1.8

Q: Which z-score does the source give for GGUCUGGAUCAGAAGUCAATT against Hrh1 here?
A: inactive: 1.76

Q: For GCUUUAAGGCCGUCAUCCATT against Gale, which z-score is on record?
A: inactive: -0.229

Q: Which z-score does the source give for UCAGUCAUGCCUUGAGGCUTT against Rragb here?
A: inactive: 0.162

Q: For CCGGAGCACCAUUAAGGUUTT against Nudt11, which z-score is on record?
A: active: 4.75

Q: With CCCAACAUUUUCUAUGUGATT against Castor1 as the sequence, how does the z-score read?
A: inactive: 0.11

Q: With GCGAAGGUCCCAAAGAUGATT against Cnst as the sequence, how does the z-score read?
A: inactive: 1.35

Q: Which z-score does the source give for CCUGAGCUUUGAUGUCGAUTT against Arg1 here?
A: inactive: -0.435

Q: With GGGUUUCUGUUUGAUUCCATT against Gria1 as the sequence, how does the z-score read?
A: inactive: -0.747

Q: Which z-score does the source give for GGGACACCUGGAAUUAAGATT against Spata16 here?
A: inactive: -0.79

Q: Which z-score does the source give for GGCGAAUGGGAUUUCUAUUTT against Ttll9 here?
A: inactive: -0.133

Q: Which z-score does the source give for CCCUUGAGUCAAAUGUCACTT against Lypd10 here?
A: inactive: 0.13

Q: With GCAGAAGUUAAGAUGCAUATT against Usf1 as the sequence, how does the z-score read?
A: active: 2.02

Q: Which z-score does the source give for CGAUGUUGUAAAUAAUGCATT against Pdia4 here?
A: inactive: 1.6

Q: For GGCCUUAGCAAAUAUGGCUTT against Nutf2, which z-score is on record?
A: inactive: 1.04

Q: Which z-score does the source give for GGACUUCAUGGGUCGCUUUTT against Gstm2 here?
A: inactive: -0.185

Q: Which z-score does the source give for GGAGAUUUGAGUCCUCUAGTT against Zfp438 here?
A: inactive: -0.719

Q: Which z-score does the source give for GGCUCUCUGGCUUACUAAGTT against Mrpl37 here?
A: inactive: 1.09

Q: For GGUUGACGACUUUGUGUGUTT against Olfr90, which z-score is on record?
A: inactive: 0.318

Q: With GGAUGAGUAUGAGAGGAAUTT against Dcp1a as the sequence, how does the z-score read?
A: active: 2.51

Q: Which z-score does the source give for CCGUUAAUGCCAUGAUCAATT against Olfr1364 here?
A: inactive: 0.44

Q: Which z-score does the source give for GGAAAAGCCUACUUCAAAATT against Efcab7 here?
A: inactive: 0.9

Q: With GGAAGUGUAUUCAAGAAGUTT against Tapt1 as the sequence, how does the z-score read?
A: active: 3.02

Q: For GCUAAACUUAAGUCCAUCATT against Supt7l, which z-score is on record?
A: inactive: -0.592

Q: Which z-score does the source give for CGUUGUCAAAAGGACCCAUTT against Pvr here?
A: inactive: -0.766

Q: Which z-score does the source give for CCCUAGAGAUGGUGGGUCUTT against Olfr934 here?
A: inactive: -0.484

Q: With GCAAGGACCAAAUUACAUATT against Itgb3bp as the sequence, how does the z-score read?
A: active: 2.45

Q: With CCAACGGCAAUGGUUGCAUTT against Thoc3 as the sequence, how does the z-score read?
A: inactive: -0.117

Q: With GGCGCAUGUGCGGAAGAAATT against Tbc1d17 as the sequence, how does the z-score read?
A: inactive: 0.785

Q: With GGCUCUUCACUCAUGUAUGTT against Olfr703 as the sequence, how does the z-score read?
A: inactive: -0.931

Q: With GCCGGAGACUAUCUGGUAGTT against Hps3 as the sequence, how does the z-score read?
A: inactive: 1.26

Q: Which z-score does the source give for CCAGUCAUUGUGCUUGUUATT against Sox12 here?
A: inactive: 0.929
